This assay deals with T1, AtMED25-GFP (35S:AtMED25-GFP plants) (Arabidopsis thaliana) (UniProt Q7XYY2).
T1 sequence: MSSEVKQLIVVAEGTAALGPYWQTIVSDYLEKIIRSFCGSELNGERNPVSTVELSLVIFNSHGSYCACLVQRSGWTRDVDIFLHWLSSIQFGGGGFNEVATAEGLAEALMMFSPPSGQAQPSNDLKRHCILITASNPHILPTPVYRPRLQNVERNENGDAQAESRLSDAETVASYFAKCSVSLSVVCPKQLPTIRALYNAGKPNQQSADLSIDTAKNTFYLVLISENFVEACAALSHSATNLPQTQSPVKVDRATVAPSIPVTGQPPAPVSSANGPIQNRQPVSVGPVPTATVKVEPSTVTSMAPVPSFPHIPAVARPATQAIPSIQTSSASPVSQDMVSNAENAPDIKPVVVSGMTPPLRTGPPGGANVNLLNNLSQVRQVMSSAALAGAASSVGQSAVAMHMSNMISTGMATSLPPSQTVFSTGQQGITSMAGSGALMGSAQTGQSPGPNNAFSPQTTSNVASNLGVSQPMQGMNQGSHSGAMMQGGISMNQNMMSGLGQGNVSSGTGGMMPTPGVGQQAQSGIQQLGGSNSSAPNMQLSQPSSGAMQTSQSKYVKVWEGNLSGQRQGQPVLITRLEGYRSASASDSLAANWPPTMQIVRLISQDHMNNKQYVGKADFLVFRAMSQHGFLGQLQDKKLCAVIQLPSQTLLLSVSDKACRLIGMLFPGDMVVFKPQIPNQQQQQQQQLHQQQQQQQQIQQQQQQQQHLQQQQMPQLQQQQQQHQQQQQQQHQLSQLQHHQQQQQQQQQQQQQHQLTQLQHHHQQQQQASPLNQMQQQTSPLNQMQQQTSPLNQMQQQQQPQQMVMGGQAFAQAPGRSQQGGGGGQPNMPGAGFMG
The experiment in a line: affinity purification with mass spectrometry.

The chains behind the UniProt entries cited, without tags or fusion partners. Where a name states a change or a piece, a line headed by the entry shows the natural chain unless it says otherwise.
UniProt F4JGZ1: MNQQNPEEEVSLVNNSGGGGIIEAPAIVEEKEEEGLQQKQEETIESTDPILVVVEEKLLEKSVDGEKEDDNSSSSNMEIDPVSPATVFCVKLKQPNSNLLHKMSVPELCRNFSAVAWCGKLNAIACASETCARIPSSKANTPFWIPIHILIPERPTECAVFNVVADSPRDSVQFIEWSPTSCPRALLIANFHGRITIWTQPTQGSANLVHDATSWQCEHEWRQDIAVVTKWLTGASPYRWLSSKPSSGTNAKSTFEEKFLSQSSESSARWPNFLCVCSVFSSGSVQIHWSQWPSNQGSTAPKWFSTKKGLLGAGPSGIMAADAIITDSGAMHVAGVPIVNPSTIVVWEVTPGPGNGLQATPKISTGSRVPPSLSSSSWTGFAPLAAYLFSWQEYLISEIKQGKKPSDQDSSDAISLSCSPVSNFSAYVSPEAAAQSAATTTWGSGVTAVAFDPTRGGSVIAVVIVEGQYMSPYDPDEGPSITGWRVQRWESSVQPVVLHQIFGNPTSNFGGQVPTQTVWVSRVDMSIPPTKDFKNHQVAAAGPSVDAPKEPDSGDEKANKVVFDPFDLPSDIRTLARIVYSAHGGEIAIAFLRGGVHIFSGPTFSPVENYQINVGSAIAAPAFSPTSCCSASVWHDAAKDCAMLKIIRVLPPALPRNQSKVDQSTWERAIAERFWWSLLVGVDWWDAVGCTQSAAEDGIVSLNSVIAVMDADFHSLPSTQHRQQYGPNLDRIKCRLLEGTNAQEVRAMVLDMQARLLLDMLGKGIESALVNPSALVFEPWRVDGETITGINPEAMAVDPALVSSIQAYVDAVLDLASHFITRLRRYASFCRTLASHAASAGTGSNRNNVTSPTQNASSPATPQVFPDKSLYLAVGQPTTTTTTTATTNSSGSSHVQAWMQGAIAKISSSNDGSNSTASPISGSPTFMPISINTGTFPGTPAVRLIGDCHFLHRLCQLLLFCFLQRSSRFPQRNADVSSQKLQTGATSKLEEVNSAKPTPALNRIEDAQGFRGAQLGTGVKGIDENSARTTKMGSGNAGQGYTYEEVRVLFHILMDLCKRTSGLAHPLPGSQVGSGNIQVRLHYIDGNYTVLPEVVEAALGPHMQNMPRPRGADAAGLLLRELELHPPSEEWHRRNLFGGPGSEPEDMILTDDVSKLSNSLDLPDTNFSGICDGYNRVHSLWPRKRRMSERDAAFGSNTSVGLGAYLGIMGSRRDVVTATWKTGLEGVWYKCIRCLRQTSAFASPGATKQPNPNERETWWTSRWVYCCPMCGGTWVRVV
UniProt Q8RWA2: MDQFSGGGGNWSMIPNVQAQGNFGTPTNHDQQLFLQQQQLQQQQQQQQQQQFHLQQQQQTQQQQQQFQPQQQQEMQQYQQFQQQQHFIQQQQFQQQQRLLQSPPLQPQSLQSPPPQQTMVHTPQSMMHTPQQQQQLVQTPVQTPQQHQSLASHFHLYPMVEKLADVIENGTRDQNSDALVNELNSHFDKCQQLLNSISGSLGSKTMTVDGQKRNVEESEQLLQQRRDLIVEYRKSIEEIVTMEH
UniProt H3K2Y6: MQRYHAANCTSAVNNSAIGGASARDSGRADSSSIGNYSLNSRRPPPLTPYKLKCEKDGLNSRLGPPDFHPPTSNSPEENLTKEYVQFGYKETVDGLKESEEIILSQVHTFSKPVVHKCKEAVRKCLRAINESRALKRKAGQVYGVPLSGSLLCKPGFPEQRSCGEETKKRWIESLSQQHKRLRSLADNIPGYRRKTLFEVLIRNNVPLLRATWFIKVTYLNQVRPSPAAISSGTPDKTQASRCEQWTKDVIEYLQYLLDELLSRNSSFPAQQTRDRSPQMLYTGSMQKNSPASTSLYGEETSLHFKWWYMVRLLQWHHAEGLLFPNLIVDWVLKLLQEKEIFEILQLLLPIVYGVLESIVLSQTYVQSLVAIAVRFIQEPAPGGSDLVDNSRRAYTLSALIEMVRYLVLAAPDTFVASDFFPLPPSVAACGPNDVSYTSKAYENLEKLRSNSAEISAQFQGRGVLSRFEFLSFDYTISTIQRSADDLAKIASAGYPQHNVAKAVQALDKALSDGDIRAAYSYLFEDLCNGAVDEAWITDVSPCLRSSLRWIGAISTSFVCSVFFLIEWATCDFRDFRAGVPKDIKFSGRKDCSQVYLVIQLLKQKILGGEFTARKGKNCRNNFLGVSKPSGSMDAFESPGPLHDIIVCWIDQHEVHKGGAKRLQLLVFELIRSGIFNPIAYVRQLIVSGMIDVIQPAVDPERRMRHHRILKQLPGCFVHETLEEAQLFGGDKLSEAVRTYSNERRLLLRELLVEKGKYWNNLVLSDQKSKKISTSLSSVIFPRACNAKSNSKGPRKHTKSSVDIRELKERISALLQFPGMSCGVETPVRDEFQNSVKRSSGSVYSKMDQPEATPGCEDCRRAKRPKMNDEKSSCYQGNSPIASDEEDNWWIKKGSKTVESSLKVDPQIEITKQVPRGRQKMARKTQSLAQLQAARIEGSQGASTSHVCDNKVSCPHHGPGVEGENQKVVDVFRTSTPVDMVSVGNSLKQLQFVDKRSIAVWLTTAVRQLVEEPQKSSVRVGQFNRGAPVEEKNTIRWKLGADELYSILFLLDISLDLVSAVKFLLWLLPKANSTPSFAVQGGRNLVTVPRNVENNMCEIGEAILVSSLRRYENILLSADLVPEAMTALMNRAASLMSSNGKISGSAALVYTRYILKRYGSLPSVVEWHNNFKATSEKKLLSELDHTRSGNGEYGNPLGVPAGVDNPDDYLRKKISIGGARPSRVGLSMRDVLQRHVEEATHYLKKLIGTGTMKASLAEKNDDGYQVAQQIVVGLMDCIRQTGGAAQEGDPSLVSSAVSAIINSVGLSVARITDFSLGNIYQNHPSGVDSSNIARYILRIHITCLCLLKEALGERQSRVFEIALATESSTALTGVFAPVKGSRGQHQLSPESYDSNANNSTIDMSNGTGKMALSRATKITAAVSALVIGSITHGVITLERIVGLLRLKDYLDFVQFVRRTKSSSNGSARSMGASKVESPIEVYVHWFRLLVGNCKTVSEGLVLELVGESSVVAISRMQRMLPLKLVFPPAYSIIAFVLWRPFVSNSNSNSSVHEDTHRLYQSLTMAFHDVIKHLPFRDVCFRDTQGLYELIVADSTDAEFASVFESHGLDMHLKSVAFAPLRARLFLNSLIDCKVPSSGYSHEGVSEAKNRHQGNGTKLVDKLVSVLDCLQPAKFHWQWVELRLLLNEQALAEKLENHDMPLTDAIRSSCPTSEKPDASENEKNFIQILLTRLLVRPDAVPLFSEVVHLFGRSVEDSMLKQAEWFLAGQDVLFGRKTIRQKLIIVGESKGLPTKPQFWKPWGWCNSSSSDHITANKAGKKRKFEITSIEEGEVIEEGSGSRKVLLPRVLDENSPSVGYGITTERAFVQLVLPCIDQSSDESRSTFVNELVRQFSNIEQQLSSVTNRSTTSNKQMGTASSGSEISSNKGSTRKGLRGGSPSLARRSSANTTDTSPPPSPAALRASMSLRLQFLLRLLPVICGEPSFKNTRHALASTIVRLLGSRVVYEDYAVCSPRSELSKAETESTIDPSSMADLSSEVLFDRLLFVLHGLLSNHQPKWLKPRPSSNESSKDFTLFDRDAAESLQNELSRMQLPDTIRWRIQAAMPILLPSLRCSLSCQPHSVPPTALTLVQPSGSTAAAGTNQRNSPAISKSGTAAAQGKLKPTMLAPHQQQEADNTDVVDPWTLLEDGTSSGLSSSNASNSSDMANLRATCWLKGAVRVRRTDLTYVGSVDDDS
UniProt Q4V3C1: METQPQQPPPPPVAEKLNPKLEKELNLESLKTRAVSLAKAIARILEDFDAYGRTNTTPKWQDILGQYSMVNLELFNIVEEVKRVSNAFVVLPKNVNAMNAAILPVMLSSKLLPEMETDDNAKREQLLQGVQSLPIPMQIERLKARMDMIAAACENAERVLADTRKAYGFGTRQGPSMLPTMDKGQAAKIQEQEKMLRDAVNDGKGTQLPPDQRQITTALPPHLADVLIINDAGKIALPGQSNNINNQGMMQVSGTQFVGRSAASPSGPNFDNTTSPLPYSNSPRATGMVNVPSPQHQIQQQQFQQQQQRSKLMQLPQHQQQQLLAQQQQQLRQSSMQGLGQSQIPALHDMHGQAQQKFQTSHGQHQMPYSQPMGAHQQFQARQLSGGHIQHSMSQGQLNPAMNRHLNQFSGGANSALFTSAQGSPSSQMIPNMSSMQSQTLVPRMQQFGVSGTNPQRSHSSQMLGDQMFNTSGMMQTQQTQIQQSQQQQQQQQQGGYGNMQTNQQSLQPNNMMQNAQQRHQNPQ
UniProt Q8RWM3: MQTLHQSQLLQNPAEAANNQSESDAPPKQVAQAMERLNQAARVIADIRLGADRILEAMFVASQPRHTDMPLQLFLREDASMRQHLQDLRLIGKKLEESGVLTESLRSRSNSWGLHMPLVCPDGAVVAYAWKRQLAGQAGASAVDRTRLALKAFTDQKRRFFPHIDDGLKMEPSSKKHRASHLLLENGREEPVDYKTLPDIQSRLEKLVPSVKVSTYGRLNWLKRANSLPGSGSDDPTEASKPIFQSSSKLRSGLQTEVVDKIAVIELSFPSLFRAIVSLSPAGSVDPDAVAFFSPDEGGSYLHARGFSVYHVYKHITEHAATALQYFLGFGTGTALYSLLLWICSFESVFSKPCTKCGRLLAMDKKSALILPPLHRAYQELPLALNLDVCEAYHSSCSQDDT
UniProt Q9FMV4: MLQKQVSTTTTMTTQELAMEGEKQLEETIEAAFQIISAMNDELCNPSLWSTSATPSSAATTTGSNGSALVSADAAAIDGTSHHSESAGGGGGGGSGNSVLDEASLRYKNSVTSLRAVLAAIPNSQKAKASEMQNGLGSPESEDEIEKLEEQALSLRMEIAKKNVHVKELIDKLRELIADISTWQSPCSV
UniProt Q84VW5: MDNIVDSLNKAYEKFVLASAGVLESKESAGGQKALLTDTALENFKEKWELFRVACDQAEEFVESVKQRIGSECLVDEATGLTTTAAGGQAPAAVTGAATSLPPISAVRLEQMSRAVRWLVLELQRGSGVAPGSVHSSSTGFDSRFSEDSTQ
UniProt Q9SQR8: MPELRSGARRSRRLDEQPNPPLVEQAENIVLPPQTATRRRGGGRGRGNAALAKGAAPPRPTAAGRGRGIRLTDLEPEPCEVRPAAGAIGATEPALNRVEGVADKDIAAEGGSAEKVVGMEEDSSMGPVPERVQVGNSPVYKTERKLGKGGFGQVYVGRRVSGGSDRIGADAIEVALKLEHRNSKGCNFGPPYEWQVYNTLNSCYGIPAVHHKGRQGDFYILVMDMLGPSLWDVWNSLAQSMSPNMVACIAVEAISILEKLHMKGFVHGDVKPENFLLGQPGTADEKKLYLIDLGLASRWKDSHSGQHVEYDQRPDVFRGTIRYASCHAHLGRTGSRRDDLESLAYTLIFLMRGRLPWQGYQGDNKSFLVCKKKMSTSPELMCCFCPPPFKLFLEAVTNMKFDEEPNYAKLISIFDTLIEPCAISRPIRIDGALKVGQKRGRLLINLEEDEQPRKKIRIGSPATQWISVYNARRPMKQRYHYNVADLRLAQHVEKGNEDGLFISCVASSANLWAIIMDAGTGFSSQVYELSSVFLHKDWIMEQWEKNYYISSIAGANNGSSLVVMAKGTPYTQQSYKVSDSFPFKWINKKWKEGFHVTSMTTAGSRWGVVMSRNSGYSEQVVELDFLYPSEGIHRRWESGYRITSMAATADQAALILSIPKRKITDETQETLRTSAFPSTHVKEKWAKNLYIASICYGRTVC
UniProt Q9SJZ6: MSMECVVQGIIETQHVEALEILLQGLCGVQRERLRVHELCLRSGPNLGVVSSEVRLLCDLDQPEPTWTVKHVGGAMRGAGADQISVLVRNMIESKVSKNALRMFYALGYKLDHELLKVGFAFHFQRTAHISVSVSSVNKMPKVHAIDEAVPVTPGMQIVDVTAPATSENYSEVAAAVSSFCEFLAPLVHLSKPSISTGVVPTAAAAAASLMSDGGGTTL

These are yes or no findings as the source states them, for the method shown. Binding seen in cells or lysates may run through a third protein. A yes stands for co-enrichment or nearness to the bait. Other partners may have been found. Where a sequence is shown, tags or fusion partners need not be part of it.

With “AtMED16 (endogenous) (from UniProt F4JGZ1)”, the binding entry is reported as “binds”.
With “AtMED9 (endogenous) (from UniProt Q8RWA2)”, the binding result is on record as “binds”.
Next, “AtMED12 (endogenous) (from UniProt H3K2Y6)”: “binds”; “AtMED8 (endogenous) (from UniProt Q4V3C1)”: “binds”.
Next, ELKS2 (endogenous): “binds”; “AtMED3 (endogenous) (from UniProt Q8RWM3)”: “binds”.
Turning to AtMED22A (endogenous), the binding entry is “binds”.
On to “AtMED30 (endogenous) (from UniProt Q9FMV4)”, for which the binding result is recorded as “binds”.
For the molecule “AtMED13 (endogenous) (from UniProt F4I096)”, the binding result is reported as “binds”.
“AtMED32 (endogenous) (from UniProt Q84VW5)”: the binding entry is “binds”.
Then “C3H44 (endogenous) (from UniProt Q9SD34)”, with “binds”; and AEL3 (endogenous) (from UniProt Q9SQR8), with “binds”; and ELKS1 (endogenous), with “binds”.
With “AtMED18 (endogenous) (from UniProt Q9SJZ6)”, the binding result is “binds”.

B1: MBR1 (endogenous) (protein, UniProt Q9ZQF9 1-704)
chain: MNPMQGPRSIGGSSTEVNQVDGESIYCTETSLNTMLNPADTGFPNNSTPSGRPTYASSSSHAAQDHTWWRFGESSSIPGPSDQVNSIGIKTSHQLPQDGTHHFVGYGSEGRQTGLNGMMVDGGVHAGSHIRNVPSFLRGSSSNPMPQHVDMSMDMDSDNCNAQTSGVVIRHNSYGSSLGSSVQAAGESSSGPASPFGGWGSSCKRKALEGSPSHYFSGETPNRIVQTENSASHASLSQYGASSSLSLATPSQSSPNVTNHFGRTEQMFGSGGGRAVAASAFHSTRNTDTLSRAGRRLNPRQPQESVAFSVSHGGTSVRPTGSLQQNLPLNSPFVDPPDVRSSSITSGSNTGENQTNIVHLPALTRNIHQYAWDASFSSRASNPSGIGMPAERLGPQWETPRSNQEQPLFAPATDMRQPVHDLWNFARGSPGSSVDSLFVPRAGPSSAIHTPQPNPTWIPPQNAPPHNPSRTSELSPWSLFPSIESPSASHGGPLPLLPAGPSVSSNEVTMPSSSNSRSHRSRHRRSGLLLERQNELLHLRHIGRSLAADGNGRNQIISEIRQVLHAMRRGENLRVEDYMVFDPLIYQGMTDMHDRHREMRLDVDNMSYEELLALGERIGDVSTGLSEEVILKAMKQHKHTSSSPSSVELHQNIEPCCICQEEYVEGDNLGTLKCGHEFHKDCIKQWVMIKNLCPICKTEALKTP
Turning to B1, the binding entry is given as “binds”.

B2: MBR2 (endogenous) (protein, UniProt O49500 1-666)
chain: MQGPRSTGDSSTGINYADGEPICSTNSETTSNNILNPVDVQFPNNTTGSGRPTYASSSSHVVQNHNWWSFGESSSRLGPSDHLNSNGSKTDRQLLSDGYGFEEGQSGMLLPGESFLRGSSSSHMLSHVNLGKDMDIGSGLQTSGVVIRHNNCETSLGSSSQTAEERSSGPGSSLGGLGSSCKRKALEGAPSHSFPGESHGCFFQTENGAWNEGLAQYDASSSLSLSMPSQNSPNVNNQSGLPEPRFGLGGGRAVTASAFPSTRSTETISRPGRRLNPGQPPESVAFSFTQSGSSVRQQQQLPATSPFVDPLDARAIPVTGSSSSGDGQPSMIHLPALTRNIHQFAWSASSSSRANSMPEEGLSPWDAPRINSEQPVFTTPANETRNPVQDQFCWSFTRGNPSTSGDSPFVPRAGSSSGIHGLQPNPTWVTPHNQSRISEVAPWSLFPSIESESATHGASLPLLPTGPSVSSNEAAAPSGSSSRSHRSRQRRSGLLLERQNDHLHLRHLGRSLAADNDGRNRLISEIRQVLSAMRRGENLRFEDYMVFDPLIYQGMAEMHDRHRDMRLDVDNMSYEELLALGERIGDVSTGLSEEVILKVMKQHKHTSSAAGSHQDMEPCCVCQEEYAEGDDLGTLGCGHEFHTACVKQWLMLKNLCPICKTVALST
For B2, the binding result is recorded as “binds”.

B3: ATRBP45C (endogenous) (protein, UniProt Q93W34 1-415)
chain: MMQQPPPASNGAATGPGQIPSDQQAYLQQQQSWMMQHQQQQQGQPPAGWNQQSAPSSGQPQQQQYGGGGSQNPGSAGEIRSLWIGDLQPWMDENYLMNVFGLTGEATAAKVIRNKQNGYSEGYGFIEFVNHATAERNLQTYNGAPMPSSEQAFRLNWAQLGAGERRQAEGPEHTVFVGDLAPDVTDHMLTETFKAVYSSVKGAKVVNDRTTGRSKGYGFVRFADESEQIRAMTEMNGQYCSSRPMRTGPAANKKPLTMQPASYQNTQGNSGESDPTNTTIFVGAVDQSVTEDDLKSVFGQFGELVHVKIPAGKRCGFVQYANRACAEQALSVLNGTQLGGQSIRLSWGRSPSNKQTQPDQAQYGGGGGYYGYPPQGYEAYGYAPPPQDPNAYYGGYAGGGYGNYQQPGGYQQQQQ
For the molecule B3, the binding result was “binds”.

B4: TOM1-LIKE 6 (endogenous) (protein, UniProt O80910 1-671)
chain: MASSSASATVAVDKATSDLLLGPDWTTNMEICDSVNSLHWQAKDVVKAVKKRLQHKSSRVQLLALTLLETLVKNCGDYLHHQVAEKNILGEMVKIVKKKADMQVRDKILVMVDSWQQAFGGPEGKYPQYYWAYDELRRSGVEFPRRSPDASPIITPPVSHPPLRQPQGGYGVPPAGYGVHQAGYGVPQAGYGIPQAGYGVPQAGYGIPQVGYGMPSGSSRRLDEAMATEVEGLSLSSIESMRDVMDLLGDMLQAVDPSDREAVKDEVIVDLVERCRSNQKKLMQMLTSTGDDELLGRGLDLNDSLQILLAKHDAIASGSPLPVQASGSPLSVQASKPADSSPKSSEAKDSSSIAGSSSPIPATVSTGKSPIDEEYEEEEDEFAQLARRHSKPPASVTTDPTSLESHNAASNALALALPDPPPPVNTTKEQDMIDLLSITLCTPSTPPAPSSQPSPPPPAGSDQNTHIYPQPQPRFDSYVAPWAQQQQPQQPQAQQGYSQHQQHQQQQGYSQPQHSQQQQGYSQLQQPQPQQGYSQSQPQAQVQMQPSTRPQNPYEYPPPPWASTSANAYYTPRANASASYTDTSALAGRSLQQSNSFPTRAGDPQATSTASNSGVSVGQKPFVPSYRLFEDLDVFGSADGKHNKPANSSNGSQNLSGSQTQQSMIGGRKMI
With B4, the binding entry is “binds”.

B5: AtMED21 (endogenous) (protein, UniProt C0LU16 1-139)
chain: MDIISQLQEQVNTIAAITFNAFGTLQRDAPPVQLSPNYPEPPATTTVTDDATPFPEQPKQLSAGLVKAAKQFDALVAALPLSEGGEGAQLKRIAELQVENDLVGQELQKQLEAAEKELKQVQELFGQAADNCLNMKKPE
Turning to B5, the binding entry is “binds”.

B6: CDKE (endogenous) (protein, UniProt Q84TI6 1-470)
chain: MGDGSSSRSNSSNSTSEKPEWLQQYNLVGKIGEGTYGLVFLARTKTPPKRPIAIKKFKQSKDGDGVSPTAIREIMLLREISHENVVKLVNVHINFADMSLYLAFDYAEYDLYEIIRHHRDKVGHSLNTYTVKSLLWQLLNGLNYLHSNWIIHRDLKPSNILVMGDAEEHGIVKIADFGLARIYQAPLKPLSDNGVVVTIWYRAPELLLGSKHYTSAVDMWAVGCIFAELLTLKPLFQGAEAKSSQNPFQLDQLDKIFKILGHPTMDKWPTLVNLPHWQNDVQHIQAHKYDSVGLHNVVHLNQKSPAYDLLSKMLEYDPLKRITASQALEHEYFRMDPLPGRNAFVASQPMEKNVNYPTRPVDTNTDFEGTTSINPPQAVAAGNVAGNMAGAHGMGSRSMPRPMVAHNMQRMQQSQGMMAYNFPAQAGLNPSVPLQQQRGMAQPHQQQQLRRKDPGMGMSGYAPPNKSRRL
As to B6, the binding entry is “binds”.

B7: RAF20 (endogenous) (protein, UniProt Q9SAJ2 1-1248)
chain: MDKARHQQLFQHSMEPGYRNETVPQPFMPDQTGSASANMRPPNSNGSDVKAVHNFSIQTGEEFSLEFMRDRVIPQRSSNPNGAGDMNYNTGYMELRGLIGISHTGSECASDVSRFSTVENGTSDIERTNSSLHEFGNKLNHVQSAPQALLSKDSSVGNLHGYKNTSSSASGSVTAKVKILCSFGGKILPRPGDSKLRYVGGETHIISIRKDISWQELRQKILEIYYQTRVVKYQLPGEDLDALVSVSSEEDLQNMLEEYNEMENRGGSQKLRMFLFSISDMDDALLGVNKNDGDSEFQYVVAVNGMDIGSGKNSTLLGLDSSSANNLAELDVRNTEGINTIAGDVVGVGASQLMVNGFQQTSAQQSESIPPSSSLHYSQSIPLNAAYQLQQSVPPSSALHYPQSITPGSSLQYPQSITPGSSYQYPQSIIPGSASSYGIYPQYYGHVVQHGERERFPLYPDHSSNYSAIGETTSSIPIQGHVSQQGGWAEGYPYPGSTPKSTQALAEEQKVSSDMKIREEVEPENRKTPGNDHQNPPQIDDVEVRNHNQVREMAVATTPPSQDAHLLPPSRDPRQNTTAKPATYRDAVITGQVPLSGIEDQLSTSSSTYAPVHSDSESNLIDLNYPEPEQSSQRVYCSERIPREQLELLNRLSKSDNSLSSQFVTSESPANTAQQDSGKEAVGKSHDEFKTVNDDANHHTHKDVETIFEKVGVSDETLESEPLHKIVNPDDANKNRVVNGADTEIGVSNLSHVNAAMSHVIPEEQASLQGDILIDINDRFPRDFLSEIFSQAISEDTSTVRPYPHDGAAVSMNVQNHDRKNWSYFQQLAEDQFIQRDVVLDQADSRIPSDRKDGGESSRLPYVSPLSRDGISTNLANPQLTLGQDYGGNFSEKDGGGTGSIPPALENEQMKVTESEEFGAMVENLRTPDSEPKDEKTETRHAALPPLGSEFDYSGLQIIKNEDLEELRELGSGTFGTVYHGKWRGSDVAIKRIKKSCFAGRSSEQERLTGEFWGEAEILSKLHHPNVVAFYGVVKDGPGGTLATVTEYMVDGSLRHVLVRKDRHLDRRKRLIIAMDAAFGMEYLHSKNTVHFDLKCDNLLVNLKDPSRPICKVGDFGLSKIKRNTLVSGGVRGTLPWMAPELLNGSSSKVSEKVDVFSFGIVLWEILTGEEPYANMHYGAIIGGIVNNTLRPTIPGFCDDEWRTLMEECWAPNPMARPSFTEIAGRLRVMSSAATSTQSKPSAHRASK
On to B7, for which the binding entry is reported as “binds”.

For the origin of these results see doi:10.1101/2024.01.26.577166.
